Results: patent publication US12117442B2, “Methods of screening compounds” (Depixus SAS, priority 2022, dated 2024)
Where two headings read alike, the source gives them in different places. At least one structure is not confirmed: it was looked up by name or label, or the drawing left a doubt.

Experiments:
[1] = biological target: HIV-1 TAR; details: pyrene-labelled HIV-1 TAR; read-out: KD (known); cited from earlier work
[2] = test system: HIV-1 TAR; assay: Ramp experiments (unfolding/refolding force) on HIV-TAR RNA; type: binding
From the text: In a ramp experiment, the nucleic acid (e.g., RNA) molecules are subjected to multiple cycles of slowly increasing and/or decreasing force, and the value at which the molecule unfolds or refolds can be determined from a sudden change in the bead's position. Upon binding, a ligand can cause a change in the unfolding or refolding force if it stabilizes or destabilizes the RNA structure.
A 59-nucleotide HIV-TAR RNA flanked by RNA/DNA duplexes was attached to a paramagnetic bead on one side and the flowcell on the other end.
To investigate whether the platform can distinguish between different KD, three additional small molecules were used that are known to bind to the HIV-1 TAR structure with varying binding affinities (FIG. 2C-2E). […] Above 100 μM of Kanamycin, there is a widening of the force distribution (FIG. 2D).

In the case of NC[C@H]1O[C@H](O[C@H]2[C@H](O)[C@@H](O[C@H]3O[C@H](CO)[C@@H](O)[C@H](N)[C@H]3O)[C@H](N)C[C@@H]2N)[C@H](O)[C@@H](O)[C@@H]1O [Kanamycin], the Kd [1] is listed as 107 µM, the “effect on unfolding force” value ([2]; adding increasing concentrations) is listed as “increase in the unfolding force” and the Kd ([2]; fit of changes in unfolding force, ramp experiments, read-out: calculated KD) is listed as 10 µM.
